For 2 substances, binding results are on record in PMC5803207.

The chains behind the UniProt entries cited, without tags or fusion partners. Where a name states a change or a piece, a line headed by the entry shows the natural chain unless it says otherwise. A line that says so, or that is headed by a name, gives the form on record, which may keep a tag or linker. Residues count along the entry.
UniProt P00367, residues 54-558: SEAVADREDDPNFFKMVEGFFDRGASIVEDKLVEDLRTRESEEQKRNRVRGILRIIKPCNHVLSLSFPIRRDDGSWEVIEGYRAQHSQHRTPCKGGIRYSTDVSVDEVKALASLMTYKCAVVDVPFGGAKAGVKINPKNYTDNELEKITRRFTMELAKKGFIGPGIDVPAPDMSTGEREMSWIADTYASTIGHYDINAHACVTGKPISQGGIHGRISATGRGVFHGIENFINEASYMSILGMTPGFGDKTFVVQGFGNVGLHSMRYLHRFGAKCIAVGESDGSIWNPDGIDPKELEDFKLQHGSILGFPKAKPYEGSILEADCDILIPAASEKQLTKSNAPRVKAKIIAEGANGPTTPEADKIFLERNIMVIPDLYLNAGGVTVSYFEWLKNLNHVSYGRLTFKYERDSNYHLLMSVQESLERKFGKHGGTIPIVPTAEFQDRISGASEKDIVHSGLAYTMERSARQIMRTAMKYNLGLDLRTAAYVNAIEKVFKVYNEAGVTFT
UniProt Q9NXA8: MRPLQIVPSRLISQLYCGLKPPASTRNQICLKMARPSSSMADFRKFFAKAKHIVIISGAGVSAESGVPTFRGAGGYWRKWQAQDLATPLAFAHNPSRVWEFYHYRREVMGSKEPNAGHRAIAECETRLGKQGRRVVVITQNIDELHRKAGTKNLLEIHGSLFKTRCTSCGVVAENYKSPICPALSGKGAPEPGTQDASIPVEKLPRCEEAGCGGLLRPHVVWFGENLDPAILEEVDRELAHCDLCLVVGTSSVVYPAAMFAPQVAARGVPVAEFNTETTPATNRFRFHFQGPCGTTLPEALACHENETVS
FLAG-SIRT5 H158Y (Q9NXA8, form named): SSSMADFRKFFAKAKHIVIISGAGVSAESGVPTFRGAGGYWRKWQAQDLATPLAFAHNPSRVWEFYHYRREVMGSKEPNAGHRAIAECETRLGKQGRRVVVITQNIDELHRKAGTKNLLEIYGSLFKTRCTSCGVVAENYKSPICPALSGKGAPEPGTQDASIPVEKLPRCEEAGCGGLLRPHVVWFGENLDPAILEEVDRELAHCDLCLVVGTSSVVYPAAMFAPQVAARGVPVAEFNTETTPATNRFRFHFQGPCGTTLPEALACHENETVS

The target of one test is GST-GLUD1 (UniProt P00367). In words: pull-down; GST or GST-GLUD1 on glutathione-Sepharose 4B beads; 150 mM NaCl, 25 mM HEPES pH 7.6, 1 mM dithiothreitol; His-SIRT5 added for 4-8 h at 4 °C; western blot with anti-His and anti-GST; both purified. Background: Immunoblotting shows a protein as a band on a membrane.
For a further test, the target named is FLAG-SIRT5 H158Y (UniProt Q9NXA8). The experiment in a line: co-IP; anti-FLAG antibody coupled to Amino Link Plus resin (Pierce Co-IP Kit); lysates of HCT116 and LoVo cells stably expressing FLAG-SIRT5 WT or H158Y; overnight at 4 °C; western blot with anti-GLUD1.

Results are given in words; binding and its absence hold for the method and conditions named. For some assays here: Binding seen in cells or lysates may run through a third protein. Some entries that bind do so weakly or less than the wild type.

Consider “His-SIRT5 (from UniProt Q9NXA8 1-310) (enzyme)”, for which the binding entry in the test with GST-GLUD1 is listed as “binds”. Consider “endogenous glutamate dehydrogenase 1 (GLUD1) (from UniProt P00367 54-558) (enzyme)”, for which the binding entry with FLAG-SIRT5 H158Y was “binds”.
